We go through 18 molecules from PMC10147683.

Sequences of proteins named here, by UniProt entry; tags and fusion partners are left off.
UniProt P18615: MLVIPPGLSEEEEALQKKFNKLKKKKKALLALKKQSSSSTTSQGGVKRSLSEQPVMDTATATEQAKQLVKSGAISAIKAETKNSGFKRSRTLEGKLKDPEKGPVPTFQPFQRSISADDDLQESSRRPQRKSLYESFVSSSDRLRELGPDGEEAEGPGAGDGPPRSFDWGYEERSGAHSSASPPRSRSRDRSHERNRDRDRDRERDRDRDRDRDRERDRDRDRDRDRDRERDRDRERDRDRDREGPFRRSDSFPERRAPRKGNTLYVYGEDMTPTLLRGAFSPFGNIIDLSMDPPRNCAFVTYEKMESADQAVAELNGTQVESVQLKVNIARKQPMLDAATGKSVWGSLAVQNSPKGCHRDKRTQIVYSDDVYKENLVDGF
UniProt Q13185: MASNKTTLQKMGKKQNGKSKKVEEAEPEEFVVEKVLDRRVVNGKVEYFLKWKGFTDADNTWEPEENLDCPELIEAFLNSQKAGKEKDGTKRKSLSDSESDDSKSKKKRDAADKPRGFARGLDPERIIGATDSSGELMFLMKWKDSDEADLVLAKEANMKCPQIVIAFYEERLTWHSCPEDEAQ
UniProt Q9NR30: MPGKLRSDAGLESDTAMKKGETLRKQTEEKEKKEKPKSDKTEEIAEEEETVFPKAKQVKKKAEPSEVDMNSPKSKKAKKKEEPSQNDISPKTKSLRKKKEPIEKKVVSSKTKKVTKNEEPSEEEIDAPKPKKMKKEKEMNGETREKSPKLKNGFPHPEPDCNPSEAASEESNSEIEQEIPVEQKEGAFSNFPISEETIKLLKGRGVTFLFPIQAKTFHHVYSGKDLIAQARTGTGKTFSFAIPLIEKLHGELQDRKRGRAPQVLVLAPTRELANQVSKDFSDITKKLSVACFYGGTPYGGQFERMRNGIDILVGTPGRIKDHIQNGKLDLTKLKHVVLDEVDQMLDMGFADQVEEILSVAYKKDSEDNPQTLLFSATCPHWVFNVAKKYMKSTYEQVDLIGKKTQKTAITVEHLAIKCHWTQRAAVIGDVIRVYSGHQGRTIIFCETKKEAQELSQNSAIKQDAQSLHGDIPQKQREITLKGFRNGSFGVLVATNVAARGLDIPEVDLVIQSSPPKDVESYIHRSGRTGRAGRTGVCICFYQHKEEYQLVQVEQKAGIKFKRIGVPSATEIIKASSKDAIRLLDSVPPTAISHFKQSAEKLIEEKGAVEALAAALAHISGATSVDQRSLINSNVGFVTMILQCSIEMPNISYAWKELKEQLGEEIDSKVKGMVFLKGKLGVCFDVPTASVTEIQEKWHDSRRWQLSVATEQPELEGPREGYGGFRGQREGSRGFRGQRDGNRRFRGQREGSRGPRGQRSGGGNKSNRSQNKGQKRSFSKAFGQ
UniProt O43143: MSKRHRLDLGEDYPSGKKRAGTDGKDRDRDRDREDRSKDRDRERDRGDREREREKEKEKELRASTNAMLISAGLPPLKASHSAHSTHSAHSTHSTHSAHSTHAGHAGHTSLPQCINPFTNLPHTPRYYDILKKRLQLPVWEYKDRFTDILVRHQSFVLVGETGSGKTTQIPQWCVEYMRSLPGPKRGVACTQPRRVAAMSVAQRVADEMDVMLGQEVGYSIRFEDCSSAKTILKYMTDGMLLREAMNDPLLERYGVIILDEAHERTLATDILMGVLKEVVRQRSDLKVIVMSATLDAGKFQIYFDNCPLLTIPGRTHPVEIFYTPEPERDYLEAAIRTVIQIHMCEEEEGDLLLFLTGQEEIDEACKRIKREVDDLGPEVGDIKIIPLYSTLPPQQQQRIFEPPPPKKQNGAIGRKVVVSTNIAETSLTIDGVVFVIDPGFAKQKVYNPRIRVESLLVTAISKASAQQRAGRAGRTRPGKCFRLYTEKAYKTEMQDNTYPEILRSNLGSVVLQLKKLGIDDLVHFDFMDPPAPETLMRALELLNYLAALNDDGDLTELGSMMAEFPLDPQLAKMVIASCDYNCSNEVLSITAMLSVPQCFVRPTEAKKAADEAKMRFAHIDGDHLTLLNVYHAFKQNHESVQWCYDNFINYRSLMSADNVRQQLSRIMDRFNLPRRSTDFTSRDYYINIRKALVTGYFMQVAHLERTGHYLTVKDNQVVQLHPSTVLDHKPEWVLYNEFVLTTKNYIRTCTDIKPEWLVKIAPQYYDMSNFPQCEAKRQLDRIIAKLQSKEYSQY
UniProt P06733: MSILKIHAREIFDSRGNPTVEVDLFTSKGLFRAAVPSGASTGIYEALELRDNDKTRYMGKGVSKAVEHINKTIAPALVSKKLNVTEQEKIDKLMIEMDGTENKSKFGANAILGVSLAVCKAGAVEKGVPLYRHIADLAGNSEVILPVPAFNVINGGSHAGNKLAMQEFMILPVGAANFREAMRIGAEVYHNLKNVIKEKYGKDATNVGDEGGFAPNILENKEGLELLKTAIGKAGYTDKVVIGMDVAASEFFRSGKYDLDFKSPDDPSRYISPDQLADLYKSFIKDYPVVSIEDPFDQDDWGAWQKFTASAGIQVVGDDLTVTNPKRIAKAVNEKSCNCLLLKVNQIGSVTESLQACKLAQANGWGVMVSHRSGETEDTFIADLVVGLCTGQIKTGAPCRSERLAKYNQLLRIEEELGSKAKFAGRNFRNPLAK
UniProt P09104: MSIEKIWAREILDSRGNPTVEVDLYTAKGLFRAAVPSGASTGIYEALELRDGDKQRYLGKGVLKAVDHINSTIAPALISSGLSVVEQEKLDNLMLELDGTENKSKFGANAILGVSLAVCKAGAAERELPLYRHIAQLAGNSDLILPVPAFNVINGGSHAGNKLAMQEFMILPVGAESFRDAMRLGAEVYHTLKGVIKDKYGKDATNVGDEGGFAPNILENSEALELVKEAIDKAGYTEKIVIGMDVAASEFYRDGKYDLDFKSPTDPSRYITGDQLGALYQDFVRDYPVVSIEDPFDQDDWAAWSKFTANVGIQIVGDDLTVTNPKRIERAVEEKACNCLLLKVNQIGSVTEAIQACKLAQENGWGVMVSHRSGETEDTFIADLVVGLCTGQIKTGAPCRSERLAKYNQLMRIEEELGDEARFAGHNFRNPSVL
UniProt P09429: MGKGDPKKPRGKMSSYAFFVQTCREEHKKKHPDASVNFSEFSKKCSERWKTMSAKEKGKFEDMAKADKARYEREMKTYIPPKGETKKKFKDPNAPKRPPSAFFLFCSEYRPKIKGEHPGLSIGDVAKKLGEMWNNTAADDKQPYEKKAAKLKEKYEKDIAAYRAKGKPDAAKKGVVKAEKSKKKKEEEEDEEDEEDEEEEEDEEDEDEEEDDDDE
UniProt Q09161: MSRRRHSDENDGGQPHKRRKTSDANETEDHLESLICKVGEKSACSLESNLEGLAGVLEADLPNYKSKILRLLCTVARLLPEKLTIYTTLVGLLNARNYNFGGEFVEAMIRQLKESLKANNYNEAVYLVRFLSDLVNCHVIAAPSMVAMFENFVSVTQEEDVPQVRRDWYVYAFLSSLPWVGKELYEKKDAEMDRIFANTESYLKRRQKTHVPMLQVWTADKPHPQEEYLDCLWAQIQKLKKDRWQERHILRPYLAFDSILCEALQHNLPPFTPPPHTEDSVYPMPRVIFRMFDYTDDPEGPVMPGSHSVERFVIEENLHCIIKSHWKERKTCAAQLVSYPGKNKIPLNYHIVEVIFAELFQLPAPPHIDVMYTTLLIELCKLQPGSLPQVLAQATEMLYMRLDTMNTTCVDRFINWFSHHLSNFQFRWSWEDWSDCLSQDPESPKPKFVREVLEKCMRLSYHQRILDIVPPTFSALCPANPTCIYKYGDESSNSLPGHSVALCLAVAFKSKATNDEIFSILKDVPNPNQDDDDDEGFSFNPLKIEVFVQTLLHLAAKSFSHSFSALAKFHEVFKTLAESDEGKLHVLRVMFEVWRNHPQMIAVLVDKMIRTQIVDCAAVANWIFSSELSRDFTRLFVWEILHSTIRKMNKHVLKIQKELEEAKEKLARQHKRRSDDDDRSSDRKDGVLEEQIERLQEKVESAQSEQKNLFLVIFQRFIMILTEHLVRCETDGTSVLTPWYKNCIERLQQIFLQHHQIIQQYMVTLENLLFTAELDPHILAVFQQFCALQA
UniProt P12004: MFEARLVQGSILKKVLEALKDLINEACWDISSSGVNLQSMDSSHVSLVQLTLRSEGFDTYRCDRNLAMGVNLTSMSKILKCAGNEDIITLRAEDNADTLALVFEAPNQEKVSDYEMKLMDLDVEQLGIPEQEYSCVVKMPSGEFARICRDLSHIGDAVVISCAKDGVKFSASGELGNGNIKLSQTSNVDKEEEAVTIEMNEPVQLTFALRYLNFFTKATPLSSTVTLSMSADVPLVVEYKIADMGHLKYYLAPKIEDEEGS
UniProt Q99873: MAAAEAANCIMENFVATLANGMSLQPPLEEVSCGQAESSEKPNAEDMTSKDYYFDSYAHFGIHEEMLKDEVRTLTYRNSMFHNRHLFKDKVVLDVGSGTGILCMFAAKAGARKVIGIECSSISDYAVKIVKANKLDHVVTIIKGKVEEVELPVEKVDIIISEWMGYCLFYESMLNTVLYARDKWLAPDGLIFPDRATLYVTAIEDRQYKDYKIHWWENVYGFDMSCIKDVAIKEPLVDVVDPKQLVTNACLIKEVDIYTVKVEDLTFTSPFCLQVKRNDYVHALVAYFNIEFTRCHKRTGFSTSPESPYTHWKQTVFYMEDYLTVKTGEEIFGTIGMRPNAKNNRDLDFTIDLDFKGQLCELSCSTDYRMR
UniProt Q9Y265: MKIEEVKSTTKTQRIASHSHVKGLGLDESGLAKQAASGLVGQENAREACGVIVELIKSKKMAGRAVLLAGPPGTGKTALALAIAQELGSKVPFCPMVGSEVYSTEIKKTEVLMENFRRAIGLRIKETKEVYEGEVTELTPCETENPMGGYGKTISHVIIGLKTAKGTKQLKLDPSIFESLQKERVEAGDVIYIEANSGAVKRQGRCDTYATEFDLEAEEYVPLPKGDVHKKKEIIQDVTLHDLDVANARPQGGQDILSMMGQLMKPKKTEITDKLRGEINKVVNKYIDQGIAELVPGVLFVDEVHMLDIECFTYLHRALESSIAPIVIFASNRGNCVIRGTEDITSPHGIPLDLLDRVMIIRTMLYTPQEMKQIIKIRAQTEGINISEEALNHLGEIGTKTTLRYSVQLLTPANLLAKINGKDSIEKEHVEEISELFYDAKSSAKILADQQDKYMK
UniProt P48436: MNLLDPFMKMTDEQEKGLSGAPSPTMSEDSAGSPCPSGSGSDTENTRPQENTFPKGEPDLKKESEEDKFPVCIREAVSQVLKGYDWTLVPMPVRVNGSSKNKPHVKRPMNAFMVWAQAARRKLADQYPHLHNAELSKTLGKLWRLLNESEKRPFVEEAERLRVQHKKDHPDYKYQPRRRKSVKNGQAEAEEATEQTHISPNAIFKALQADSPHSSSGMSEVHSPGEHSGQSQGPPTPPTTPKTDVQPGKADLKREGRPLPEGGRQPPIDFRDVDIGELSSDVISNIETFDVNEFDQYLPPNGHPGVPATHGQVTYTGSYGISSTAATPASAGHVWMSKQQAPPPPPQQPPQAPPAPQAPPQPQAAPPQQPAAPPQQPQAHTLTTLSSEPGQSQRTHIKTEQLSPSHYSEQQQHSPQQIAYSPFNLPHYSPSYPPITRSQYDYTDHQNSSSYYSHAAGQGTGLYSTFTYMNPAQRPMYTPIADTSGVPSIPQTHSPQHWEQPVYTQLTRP

The target of this experiment is NELF-E (negative elongation factor subunit E) (human (endogenous in MCF7ras+SS)) (UniProt P18615). Description: affinity purification with mass spectrometry; qPLEX-RIME: NELF-E antibody (Abcam ab170104) on Protein A Dynabeads; 50 million MCF7ras+SS cells with or without Dox, dual crosslinked (2 mM DSG, 1% formaldehyde), sheared chromatin; TMT-10 quantification against rabbit IgG controls.

These are yes or no findings as the source states them, for the method shown. Binding seen in cells or lysates may run through a third protein. These calls come from enrichment with a bait or labelling near it, and not all partners need be listed.

Turning to CBX3 (from UniProt Q13185 1-183), the binding result is listed as “binds”. With DDX21 (from UniProt Q9NR30 1-783) the entry was “binds”; with DHX15 (from UniProt O43143 1-795), “binds”. With ENO1 (from UniProt P06733 1-434) the entry was “binds”; with ENO2 (from UniProt P09104 1-434), “binds”. On to HMGB1 (from UniProt P09429 1-215), for which the binding result was “binds”. With NCBP1 (from UniProt Q09161 1-790) the entry was “binds”. With PCNA (from UniProt P12004 1-261), the binding result was “binds”.

Take PRMT1 (from UniProt Q99873 1-371): the binding result is listed as “binds”. With RUVBL1 (from UniProt Q9Y265 1-456) the entry was “binds”.

In the case of “SOX9 (doxycycline-induced in MCF7ras+SS) (from UniProt P48436 1-509)”, the binding entry is listed as “binds”.

B1: SRSF8 (protein, UniProt Q9BRL6 1-282)
chain: MSCGRPPPDVDGMITLKVDNLTYRTSPDSLRRVFEKYGRVGDVYIPREPHTKAPRGFAFVRFHDRRDAQDAEAAMDGAELDGRELRVQVARYGRRDLPRSRQGEPRGRSRGGGYGRRSRSYGRRSRSPRRRHRSRSRGPSCSRSRSRSRYRGSRYSRSPYSRSPYSRSRYSRSPYSRSRYRESRYGGSHYSSSGYSNSRYSRYHSSRSHSKSGSSTSSRSASTSKSSSARRSKSSSVSRSRSRSRSSSMTRSPPRVSKRKSKSRSRSKRPPKSPEEEGQMSS
In the case of B1, the binding entry is on record as “binds”.

B2: IBTK (protein, UniProt Q9P2D0 1-1353)
chain: MSSPMPDCTSKCRSLKHALDVLSVVTKGSENQIKAFLSSHCYNAATIKDVFGRNALHLVSSCGKKGVLDWLIQKGVDLLVKDKESGWTALHRSIFYGHIDCVWSLLKHGVSLYIQDKEGLSALDLVMKDRPTHVVFKNTDPTDVYTWGDNTNFTLGHGSQNSKHHPELVDLFSRSGIYIKQVVLCKFHSVFLSQKGQVYTCGHGPGGRLGHGDEQTCLVPRLVEGLNGHNCSQVAAAKDHTVVLTEDGCVYTFGLNIFHQLGIIPPPSSCNVPRQIQAKYLKGRTIIGVAAGRFHTVLWTREAVYTMGLNGGQLGCLLDPNGEKCVTAPRQVSALHHKDIALSLVAASDGATVCVTTRGDIYLLADYQCKKMASKQLNLKKVLVSGGHMEYKVDPEHLKENGGQKICILAMDGAGRVFCWRSVNSSLKQCRWAYPRQVFISDIALNRNEILFVTQDGEGFRGRWFEEKRKSSEKKEILSNLHNSSSDVSYVSDINSVYERIRLEKLTFAHRAVSVSTDPSGCNFAILQSDPKTSLYEIPAVSSSSFFEEFGKLLREADEMDSIHDVTFQVGNRLFPAHKYILAVHSDFFQKLFLSDGNTSEFTDIYQKDEDSAGCHLFVVEKVHPDMFEYLLQFIYTDTCDFLTHGFKPRIHLNKNPEEYQGTLNSHLNKVNFHEDDNQKSAFEVYKSNQAQTVSERQKSKPKSCKKGKNIREDDPVRMLQTVAKKFDFSNLSSRLDGVRFENEKINVIAKNTGNKLKLSQKKCSFLCDVTMKSVDGKEFPCHKCVLCARLEYFHSMLSSSWIEASSCAALEMPIHSDILKVILDYLYTDEAVVIKESQNVDFICSVLVVADQLLITRLKEICEVALTEKLTLKNAAMLLEFAAMYSAKQLKLSCLQFIGLNMAALLEARSLDVLSDGVLKDLSEFYRKMIPAMDRRVITPYQDGPDISYLEVEDGDIFLKEEINMEQNHSETMFKKAKTKAKKKPRKRSDSSGGYNLSDIIQSPSSTGLLKSGKTNSVESLPELLTSDSEGSYAGVGSPRDLQSPDFTTGFHSDKIEAKVKPYVNGTSPVYSREDLKPWEKSPILKISAPQPIPSNRIDTTSSASWVAGSFSPVSPPVVDLRTIMEIEESRQKCGATPKSHLGKTVSHGVKLSQKQRKMIALTTKENNSGMNSMETVLFTPSKAPKPVNAWASSLHSVSSKSFRDFLLEEKKSVTSHSSGDHVKKVSFKGIENSQAPKIVRCSTHGTPGPEGNHISDLPLLDSPNPWLSSSVTAPSMVAPVTFASIVEEELQQEAALIRSREKPLALIQIEEHAIQDLLVFYEAFGNPEEFVIVERTPQGPLAVPMWNKHGC
In the case of B2, the binding result is reported as “binds”.

B3: SRSF7 (protein, UniProt Q16629 1-238)
chain: MSRYGRYGGETKVYVGNLGTGAGKGELERAFSYYGPLRTVWIARNPPGFAFVEFEDPRDAEDAVRGLDGKVICGSRVRVELSTGMPRRSRFDRPPARRPFDPNDRCYECGEKGHYAYDCHRYSRRRRSRSRSRSHSRSRGRRYSRSRSRSRGRRSRSASPRRSRSISLRRSRSASLRRSRSGSIKGSRYFQSPSRSRSRSRSISRPRSSRSKSRSPSPKRSRSPSGSPRRSASPERMD
Regarding B3, the binding result is given as “binds”.

B4: TRIR (protein, UniProt Q9BQ61 1-176)
chain: MAARGRRAEPQGREAPGPAGGGGGGSRWAESGSGTSPESGDEEVSGAGSSPVSGGVNLFANDGSFLELFKRKMEEEQRQRQEEPPPGPQRPDQSAAAAGPGDPKRKGGPGSTLSFVGKRRGGNKLALKTGIVAKKQKTEDEVLTSKGDAWAKYMAEVKKYKAHQCGDDDKTRPLVK
In the case of B4, the binding entry is given as “binds”.

B5: CMTR1 (protein, UniProt Q8N1G2 1-835)
chain: MKRRTDPECTAPIKKQKKRVAELALSLSSTSDDEPPSSVSHGAKASTTSLSGSDSETEGKQHSSDSFDDAFKADSLVEGTSSRYSMYNSVSQKLMAKMGFREGEGLGKYSQGRKDIVEASSQKGRRGLGLTLRGFDQELNVDWRDEPEPSACEQVSWFPECTTEIPDTQEMSDWMVVGKRKMIIEDETEFCGEELLHSVLQCKSVFDVLDGEEMRRARTRANPYEMIRGVFFLNRAAMKMANMDFVFDRMFTNPRDSYGKPLVKDREAELLYFADVCAGPGGFSEYVLWRKKWHAKGFGMTLKGPNDFKLEDFYSASSELFEPYYGEGGIDGDGDITRPENISAFRNFVLDNTDRKGVHFLMADGGFSVEGQENLQEILSKQLLLCQFLMALSIVRTGGHFICKTFDLFTPFSVGLVYLLYCCFERVCLFKPITSRPANSERYVVCKGLKVGIDDVRDYLFAVNIKLNQLRNTDSDVNLVVPLEVIKGDHEFTDYMIRSNESHCSLQIKALAKIHAFVQDTTLSEPRQAEIRKECLRLWGIPDQARVAPSSSDPKSKFFELIQGTEIDIFSYKPTLLTSKTLEKIRPVFDYRCMVSGSEQKFLIGLGKSQIYTWDGRQSDRWIKLDLKTELPRDTLLSVEIVHELKGEGKAQRKISAIHILDVLVLNGTDVREQHFNQRIQLAEKFVKAVSKPSRPDMNPIRVKEVYRLEEMEKIFVRLEMKIIKGSSGTPKLSYTGRDDRHFVPMGLYIVRTVNEPWTMGFSKSFKKKFFYNKKTKDSTFDLPADSIAPFHICYYGRLFWEWGDGIRVHDSQKPQDQDKLSKEDVLSFIQMHRA
In the case of B5, the binding result is recorded as “binds”.

B6: KMT5A (protein, UniProt Q9NQR1 1-393)
chain: MGEGGAAAALVAAAAAAAAAAAAVVAGQRRRRLGRRARCHGPGRAAGGKMSKPCAVEAAAAAVAATAPGPEMVERRGPGRPRTDGENVFTGQSKIYSYMSPNKCSGMRFPLQEENSVTHHEVKCQGKPLAGIYRKREEKRNAGNAVRSAMKSEEQKIKDARKGPLVPFPNQKSEAAEPPKTPPSSCDSTNAAIAKQALKKPIKGKQAPRKKAQGKTQQNRKLTDFYPVRRSSRKSKAELQSEERKRIDELIESGKEEGMKIDLIDGKGRGVIATKQFSRGDFVVEYHGDLIEITDAKKREALYAQDPSTGCYMYYFQYLSKTYCVDATRETNRLGRLINHSKCGNCQTKLHDIDGVPHLILIASRDIAAGEELLYDYGDRSKASIEAHPWLKH
As to B6, the binding entry is recorded as “binds”.

B7: SLUG (doxycycline-induced in MCF7ras+SS) (protein, UniProt O43623 1-268)
chain: MPRSFLVKKHFNASKKPNYSELDTHTVIISPYLYESYSMPVIPQPEILSSGAYSPITVWTTAAPFHAQLPNGLSPLSGYSSSLGRVSPPPPSDTSSKDHSGSESPISDEEERLQSKLSDPHAIEAEKFQCNLCNKTYSTFSGLAKHKQLHCDAQSRKSFSCKYCDKEYVSLGALKMHIRTHTLPCVCKICGKAFSRPWLLQGHIRTHTGEKPFSCPHCNRAFADRSNLRAHLQTHSDVKKYQCKNCSKTFSRMSLLHKHEESGCCVAH
In the case of B7, the binding result is on record as “binds”.
